We go through one molecule from US20050287612A1.

Results are given in words; binding and its absence hold for the method and conditions named. Binding seen in cells or lysates may run through a third protein. Some binding calls cover weakened binding; strength is not graded here. Sequences can lack the tags named with a protein.

Assay [1] concerns the target T1, full-length myc-tagged CARD-4 (human), Q9Y239.
T1 chain: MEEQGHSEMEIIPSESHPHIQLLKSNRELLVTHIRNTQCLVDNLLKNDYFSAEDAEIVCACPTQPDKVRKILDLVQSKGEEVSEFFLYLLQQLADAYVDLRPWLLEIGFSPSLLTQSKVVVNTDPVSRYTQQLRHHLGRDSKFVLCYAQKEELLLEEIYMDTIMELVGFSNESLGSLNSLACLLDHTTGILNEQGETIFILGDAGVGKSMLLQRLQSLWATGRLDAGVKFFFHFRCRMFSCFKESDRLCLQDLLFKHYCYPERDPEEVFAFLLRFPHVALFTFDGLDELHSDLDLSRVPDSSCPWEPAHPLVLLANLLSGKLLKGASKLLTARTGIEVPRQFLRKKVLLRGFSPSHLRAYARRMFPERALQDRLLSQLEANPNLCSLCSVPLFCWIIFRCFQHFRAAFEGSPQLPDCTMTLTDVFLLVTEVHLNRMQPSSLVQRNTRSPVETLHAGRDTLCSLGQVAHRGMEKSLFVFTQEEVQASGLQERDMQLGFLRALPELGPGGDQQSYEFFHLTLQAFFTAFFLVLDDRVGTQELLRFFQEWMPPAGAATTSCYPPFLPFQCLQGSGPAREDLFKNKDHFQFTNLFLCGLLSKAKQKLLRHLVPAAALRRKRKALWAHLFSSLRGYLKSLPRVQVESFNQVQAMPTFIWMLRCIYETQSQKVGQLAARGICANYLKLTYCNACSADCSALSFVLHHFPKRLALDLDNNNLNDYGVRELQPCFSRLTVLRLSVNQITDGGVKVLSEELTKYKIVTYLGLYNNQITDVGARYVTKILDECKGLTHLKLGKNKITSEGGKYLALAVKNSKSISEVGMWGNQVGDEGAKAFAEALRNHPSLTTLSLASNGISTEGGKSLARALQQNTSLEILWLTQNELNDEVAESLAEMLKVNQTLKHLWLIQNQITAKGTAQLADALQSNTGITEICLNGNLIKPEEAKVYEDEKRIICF
Nature of the assay: co-immunoprecipitation from transfected HeLa cells (FIG. 4B). Particulars: remark: other sources report otherwise.

For assay [2], the target named is T1, full-length myc-tagged CARD-4 (human), …. The assay is described as follows: co-immunoprecipitation from transfected HeLa cells: anti-HA IP, Western blot for Myc-tagged CARD-4. Particulars: remark: other sources report otherwise.

B1: full-length hemagglutinin (HA) tagged CARD-4, Q9Y239 1-953 (protein, not shown: small tags and cut ends)
chain: MEEQGHSEMEIIPSESHPHIQLLKSNRELLVTHIRNTQCLVDNLLKNDYFSAEDAEIVCACPTQPDKVRKILDLVQSKGEEVSEFFLYLLQQLADAYVDLRPWLLEIGFSPSLLTQSKVVVNTDPVSRYTQQLRHHLGRDSKFVLCYAQKEELLLEEIYMDTIMELVGFSNESLGSLNSLACLLDHTTGILNEQGETIFILGDAGVGKSMLLQRLQSLWATGRLDAGVKFFFHFRCRMFSCFKESDRLCLQDLLFKHYCYPERDPEEVFAFLLRFPHVALFTFDGLDELHSDLDLSRVPDSSCPWEPAHPLVLLANLLSGKLLKGASKLLTARTGIEVPRQFLRKKVLLRGFSPSHLRAYARRMFPERALQDRLLSQLEANPNLCSLCSVPLFCWIIFRCFQHFRAAFEGSPQLPDCTMTLTDVFLLVTEVHLNRMQPSSLVQRNTRSPVETLHAGRDTLCSLGQVAHRGMEKSLFVFTQEEVQASGLQERDMQLGFLRALPELGPGGDQQSYEFFHLTLQAFFTAFFLVLDDRVGTQELLRFFQEWMPPAGAATTSCYPPFLPFQCLQGSGPAREDLFKNKDHFQFTNLFLCGLLSKAKQKLLRHLVPAAALRRKRKALWAHLFSSLRGYLKSLPRVQVESFNQVQAMPTFIWMLRCIYETQSQKVGQLAARGICANYLKLTYCNACSADCSALSFVLHHFPKRLALDLDNNNLNDYGVRELQPCFSRLTVLRLSVNQITDGGVKVLSEELTKYKIVTYLGLYNNQITDVGARYVTKILDECKGLTHLKLGKNKITSEGGKYLALAVKNSKSISEVGMWGNQVGDEGAKAFAEALRNHPSLTTLSLASNGISTEGGKSLARALQQNTSLEILWLTQNELNDEVAESLAEMLKVNQTLKHLWLIQNQITAKGTAQLADALQSNTGITEICLNGNLIKPEEAKVYEDEKRIICF
On to B1, for which the binding result in assay [1] and in assay [2] was “binds” each time.
